Assay results reported in PubChem BioAssay AID1671190 (National Center for Advancing Translational Sciences (NCATS), 2021).
“And” between values parts separate entries of the source, which are not always exact repeats. Equal values may be shown once. About 6,100 (1.1%) of roughly 580,000 compounds were called active. Inconclusive results, whose numbers are uncertain, are shown with a selection of clear calls. The call rests on the fitted dose curve; in most records, active means well fitted inhibition curve with a large enough effect; inconclusive means small, poorly fitted or top-dose-only effect, or another doubt; inactive means no such curve, though single readings can be large or run the other way. Where the call is inconclusive, the potency comes from a doubtful curve fit.

Protein sequences, listed by entry. Tags and fused reporters are not part of them. Lines headed by an entry give the natural chain unless they say otherwise; changes in a name come on top.
UniProt P18054: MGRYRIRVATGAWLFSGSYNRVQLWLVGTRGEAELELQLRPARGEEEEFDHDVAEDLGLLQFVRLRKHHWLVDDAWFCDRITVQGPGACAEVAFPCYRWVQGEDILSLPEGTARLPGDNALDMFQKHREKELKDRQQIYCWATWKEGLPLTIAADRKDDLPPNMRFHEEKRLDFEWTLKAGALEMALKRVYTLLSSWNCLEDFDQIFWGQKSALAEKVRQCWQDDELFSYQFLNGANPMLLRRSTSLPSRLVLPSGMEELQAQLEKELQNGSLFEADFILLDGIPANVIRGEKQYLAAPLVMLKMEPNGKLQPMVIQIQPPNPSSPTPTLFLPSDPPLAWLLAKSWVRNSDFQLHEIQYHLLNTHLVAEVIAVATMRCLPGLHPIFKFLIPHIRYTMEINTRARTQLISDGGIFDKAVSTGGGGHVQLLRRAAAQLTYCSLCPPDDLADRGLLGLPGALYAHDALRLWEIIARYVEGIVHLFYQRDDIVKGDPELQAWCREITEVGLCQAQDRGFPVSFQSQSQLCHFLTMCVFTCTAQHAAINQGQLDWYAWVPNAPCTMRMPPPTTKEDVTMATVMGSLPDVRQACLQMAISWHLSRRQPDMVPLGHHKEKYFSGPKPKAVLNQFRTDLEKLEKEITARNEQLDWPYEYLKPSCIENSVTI

target: Polyunsaturated fatty acid lipoxygenase ALOX12 (Homo sapiens) (UniProt P18054); test: Primary qHTS assay for inhibitors of human arachidonate 12S-lipoxygenase (ALOX12): Round 2; details: purified 12hLO, xylenol orange hydroperoxide absorbance; activity change, negative = inhibition: at 108 µM (top of the series) unless noted
Outline: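 Purified human 12hLO (150 nM final) in 25 mM Hepes, 0.01% Triton X-100, pH 7.0 was preincubated 15 min at room temperature with compound. Then 40 uM arachidonic acid was added, 30 min. Hydroperoxide was read by Fe-XO absorbance ratio 573/405 nm.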
On the % scale 0 is the no-effect control and ±100 the full control effect; potency means the concentration at half of the fitted maximal effect.

Compound	Potency	activity change, negative = inhibition
Cc1cc2cc3c(cc2nc1SCC(=O)N1CCN(C(=O)c2ccco2)CC1)OCO3	inconclusive: 44.7 µM [inhibitor, partial curve, poor fit]	–
N#C/C(=C\c1ccc(Sc2ccccc2)o1)c1nc2ccccc2[nH]1	inconclusive: 39.8 µM [inhibitor, partial curve, poor fit]	–
COc1ccccc1C(c1nnnn1Cc1ccco1)N1CCN(c2cccc(C)c2C)CC1 (stereo unspecified)	inconclusive: 25.1 µM [inhibitor, partial curve, poor fit]	–
C#CCNCCS(=O)(=O)N(Cc1ccc(Br)cc1)[C@@H](C)C(=O)O	inconclusive: 100 µM [inhibitor, single point]	–
CC(C)NC(=O)C1CCN(Cc2cccc(OCc3ccccc3)c2)CC1	inactive	–
Cc1c(Br)c([N+](=O)[O-])nn1CC(=O)Nc1cccc2nonc12	inconclusive: 50.1 µM [inhibitor, partial curve, poor fit]	–
CCN1C(=O)c2cccc3c(Cl)ccc(c23)C1=O	inactive	–
C[C@H](CO)N1C[C@H](C)[C@H](CN(C)C(=O)c2ccccc2)OCc2ccccc2-c2c(n(C)c3ccccc23)C1=O	inconclusive: 112 µM [inhibitor, single point]	–
CC(=O)Nc1ccc(NS(=O)(=O)c2ccc(-c3csc(C)n3)s2)cc1	inconclusive: 126 µM [inhibitor, single point]	–
O=C(CSc1nnc(C2CC2)n1Cc1ccccc1)c1ccccc1F	inconclusive: 50.1 µM [inhibitor, partial curve, poor fit]	–
CCCS(=O)(=O)N1CCN(c2ccc(N3CCCCC3)nn2)CC1	inconclusive: 35.5 µM [inhibitor, partial curve, poor fit]	–
CCC(C)c1ccc(NC(=O)c2c([N+](=O)[O-])cnn2CC)cc1 (stereo unspecified)	inconclusive: 35.5 µM [inhibitor, partial curve, poor fit]	–
O=C(O)c1ccc(S(=O)(=O)NCCCO)cc1	inconclusive: 44.7 µM [inhibitor, partial curve, poor fit]	–
Cc1ccc(C(=O)NN=C(C(C)C)C(C)C)cc1C	inactive	–
O=C(Nc1ccc(Cl)cc1)N1CCN(c2ccc3nnc(-c4ccccc4)n3n2)CC1	inactive	–
Cn1c(=O)c2c(c3ccccc31)OC(=O)CC2c1cccc(F)c1 (stereo unspecified)	inconclusive: 44.7 µM [inhibitor, partial curve, poor fit]	–
COc1ccc(CNc2ccc(N3CCOCC3)cc2)cc1	inconclusive: 35.5 µM [inhibitor, partial curve]	–
C=CCn1c(C(C)(C)Oc2ccc(Cl)c(C)c2)n[nH]c1=S	inconclusive: 141 µM [inhibitor, partial curve, poor fit]	–
Cc1ccccc1CCNC(=O)c1ccc(Cl)c(S(=O)(=O)N2CC(C)OC(C)C2)c1 (stereo unspecified)	inactive	–
O=C(COC(=O)c1csc(NCc2ccccc2)n1)NC1CCCC1	inactive	–
CCCCN(C)c1ccc(C(=O)O)cc1NS(=O)(=O)c1ccc(Br)s1	inconclusive: 10 µM [inhibitor, full curve, poor fit]	–
Cc1cc2cc(NS(=O)(=O)c3ccc(F)c(F)c3F)ccc2[nH]1	inconclusive: 70.8 µM [inhibitor, partial curve, poor fit]	–

Given with bars between the fields: entries from further up.
Compound | Potency | activity change, negative = inhibition
Cn1c(=O)c2c(c3ccccc31)OC(=O)CC2c1cccc(F)c1 (stereo unspecified) | inconclusive: 44.7 µM [inhibitor, partial curve, poor fit] | –
COc1ccc(CNc2ccc(N3CCOCC3)cc2)cc1 | inconclusive: 35.5 µM [inhibitor, partial curve] | –
C=CCn1c(C(C)(C)Oc2ccc(Cl)c(C)c2)n[nH]c1=S | inconclusive: 141 µM [inhibitor, partial curve, poor fit] | –
Cc1ccccc1CCNC(=O)c1ccc(Cl)c(S(=O)(=O)N2CC(C)OC(C)C2)c1 (stereo unspecified) | inactive | –

(further entries)

Compound	Potency	activity change, negative = inhibition
CC(OC(=O)c1ccccc1NS(=O)(=O)c1cccc(C(F)(F)F)c1)C(=O)N(C)Cc1ccccc1 (stereo unspecified)	inactive	–
S=C(NCc1ccccc1)Nc1ccncc1	inactive	–
NC(c1csc(Nc2nncc3ccccc23)n1)c1ccccc1Cl (stereo unspecified)	inconclusive: 79.4 µM [inhibitor, partial curve, poor fit]	–
COC(=O)c1cc(C(=O)OCC(=O)NCc2cccs2)cc([N+](=O)[O-])c1	inactive	–
COc1ccc(-c2nc(CS(=O)(=O)CC(=O)NCc3ccc4c(c3)OCO4)c(C)o2)cc1	inactive	–
CCCCNC(=O)C1CCN(S(=O)(=O)c2ccc3c(ccn3CC)c2)CC1	inactive	–
C=CCNCCCOc1ccc(Cl)cc1Br	inconclusive: 7.94 µM [inhibitor, full curve]	–
CC(C)Sc1nc2sc3c(c2c2nnc(SCC(=O)NCc4ccco4)n12)CCCC3	inconclusive: 7.08 µM [inhibitor, full curve, poor fit]	–
COC(=O)C(O)(c1ccc(N(C)C(=O)Nc2cccc(Cl)c2)cc1)C(F)(F)F (stereo unspecified)	inconclusive: 3.16 µM [inhibitor, full curve, poor fit]	–
COc1ccc(CCNC2=C(Cl)C(=O)N(CCc3ccc(OC)c(OC)c3)C2=O)cc1OC	inactive	–
COc1ccc(/C=N/N2CCN(c3ccccc3OC)CC2)cc1OC	inactive	–
COc1ccccc1N1CCN(S(=O)(=O)c2ccc3nc(-c4ccccc4)[nH]c3c2)CC1	inactive	–
CCOC(=O)c1sc(NC(=O)Nc2ccccc2)cc1C	inconclusive: 79.4 µM [inhibitor, partial curve, poor fit]	–
Cc1c(-c2ccccc2)nc2ccccc2c1C(=O)NCc1cccs1	inconclusive: 44.7 µM [inhibitor, partial curve, poor fit]	–
O=C(NNC(=S)Nc1ccc(Cl)c(Cl)c1)c1cccc([N+](=O)[O-])c1	inconclusive: 25.1 µM [inhibitor, single point]	–
CCN(CC)c1ccc2cc(C(=O)c3cccs3)c(=O)oc2c1	inconclusive: 50.1 µM [inhibitor, partial curve, poor fit]	–
O=C(NC1CC1)C1COC2(CCN(C(=O)c3cccc([N+](=O)[O-])c3)CC2)N1C(=O)c1ccccc1 (stereo unspecified)	inactive	–
COc1ccc(S(=O)(=O)Nc2c(NC3CCCCC3)c3ccccc3oc2=O)cc1	inconclusive: 50.1 µM [inhibitor, partial curve, poor fit] and inconclusive: 56.2 µM [inhibitor, partial curve, poor fit]	–
COC1CCN(c2cc(-c3cccnc3)nc3c(C)noc23)CC1	inconclusive: 25.1 µM [inhibitor, full curve]	–
Cc1cccc(NC(=S)NNC(=O)c2ccc(Br)cc2)c1	inconclusive: 56.2 µM [inhibitor, partial curve, poor fit]	–
CN(C)c1ccc(Nc2nc3ccccc3nc2NS(=O)(=O)c2cccs2)cc1	inconclusive: 7.08 µM [inhibitor, full curve, poor fit]	–
CCOc1ccc(Br)cc1C1C(C(=O)OC)=C(N)Oc2cc(N(C)C)ccc21 (stereo unspecified)	inactive	–

Compound	Potency	activity change, negative = inhibition
CCNC(=O)/C(C#N)=C/c1c(N2CCN(c3ccc(OC)cc3)CC2)nc2c(C)cccn2c1=O	inactive	–
Cc1ccc(/C=N\NC(=O)c2ccc(C)cc2)cc1	inconclusive: 141 µM [inhibitor, single point]	–
CC(C)CCn1c(SCCc2ccccc2)nc2c1c(=O)[nH]c(=O)n2C	inconclusive: 35.5 µM [inhibitor, single point]	–
CC(C)CCNC(=O)C12CC3CC(C1)CC(c1ccccc1)(C3)C2	inconclusive: 100 µM [inhibitor, single point]	–
COc1ccc(C2CC(=O)N(CCCN(C)CCc3ccc(OC)c(OC)c3)C2)cc1 (stereo unspecified)	inconclusive: 6.31 µM [inhibitor, full curve]	–
O=C(N/C(=C/c1ccccc1)C(=O)N1CCCCC1)c1ccccc1	inconclusive: 0.355 µM [inhibitor, full curve, poor fit]	–
Cn1c2[n+](c3ccc(Cl)cc3c1=O)Cc1ccccc1-2	inconclusive: 112 µM [inhibitor, single point]	–
O=C(C1CCCC1)N1CC2(CCCN(C3COC3)C2)Cc2ccccc21 (stereo unspecified)	–	inactive: 0.238% [at 6.33 µM]
CCCC(=O)N1Cc2ccccc2CC2(CCCN(C)C2)C1 (stereo unspecified)	inconclusive: 50.1 µM [inhibitor, partial curve, poor fit]	–
Nc1ccc2c(c1)C(=O)c1cc(Cl)c(Cl)cc1-2	inactive	–
Cc1noc(C)c1-c1nc(NCc2cccnc2)c2ccccc2n1	inconclusive: 44.7 µM [inhibitor, partial curve, poor fit]	–
CCOc1cccc(C(=O)Nc2ccc(NC(=O)c3ccccc3)c(C)c2)c1	inconclusive: 35.5 µM [inhibitor, single point]	–
c1ccc(CN2CCC(NC3CCCC3)CC2)cc1	inconclusive: 0.398 µM [inhibitor, full curve]	–
Cc1cc(=O)n2c3ccccc3n(CC(O)CNc3ccc(F)cc3)c2c1C#N (stereo unspecified)	inactive	–
Cc1occc1-c1nnc(SCC(=O)Nc2nc(C(C)(C)C)cs2)o1	inactive	–
CCCCCCn1c(N2CCN(Cc3c(Cl)cccc3Cl)CC2)nc2c1c(=O)[nH]c(=O)n2C	inactive	–
CCC(Sc1nc2ccccc2c2nc(-c3ccccc3)nn12)C(=O)Nc1cccc(OC)c1 (stereo unspecified)	inconclusive: 112 µM [inhibitor, partial curve, poor fit]	–
CCCC(=O)C1=C(N(C)c2ccccc2)CC(C)(C)C(C(=O)OC)C1=O (stereo unspecified)	inconclusive: 50.1 µM [inhibitor, single point]	–
CN(CC(=O)NC(=O)NC1CC1)CC(=O)N(C)C	inconclusive: 5.01 µM [inhibitor, full curve, poor fit]	–
C=CCN1C(=O)/C(=C\c2cccs2)C(C(=O)OC)=C1C	inconclusive: 39.8 µM [inhibitor, partial curve, poor fit]	–
Cc1ccc(C(=O)/C=C/c2ccc(-c3cccc(Cl)c3Cl)o2)cc1	active: 14.1 µM	–
CN1CCC[C@@H]1CCNC(=O)c1cccc2c1C(=O)c1ccc(N3CCCC3)cc1S2(=O)=O	inconclusive: 28.2 µM [inhibitor, single point]	–
